Experimental data: the supplement of paper PMC12823440, “Inhibitors supercharge kinase turnover through native proteolytic circuits” (Nature, 2025)
This is one part of the list. Hit calls seldom repeat between salt and free forms of one compound.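 Kinases, fused to nanoluciferase, were expressed in K562 cells; luminescence was measured every 4 h from 2 to 18 h as percent of control (DMSO = 100%, positive control = 0%). A time point is decreased if signal falls significantly (2 sigma). Hits were called by the authors by a rule that is not shown; the count of time points alone does not decide it.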

Amino acid sequences for entries named in this document (tags omitted). A change or cut given only in a name is not applied to a line headed by its entry.
UniProt Q9UM73: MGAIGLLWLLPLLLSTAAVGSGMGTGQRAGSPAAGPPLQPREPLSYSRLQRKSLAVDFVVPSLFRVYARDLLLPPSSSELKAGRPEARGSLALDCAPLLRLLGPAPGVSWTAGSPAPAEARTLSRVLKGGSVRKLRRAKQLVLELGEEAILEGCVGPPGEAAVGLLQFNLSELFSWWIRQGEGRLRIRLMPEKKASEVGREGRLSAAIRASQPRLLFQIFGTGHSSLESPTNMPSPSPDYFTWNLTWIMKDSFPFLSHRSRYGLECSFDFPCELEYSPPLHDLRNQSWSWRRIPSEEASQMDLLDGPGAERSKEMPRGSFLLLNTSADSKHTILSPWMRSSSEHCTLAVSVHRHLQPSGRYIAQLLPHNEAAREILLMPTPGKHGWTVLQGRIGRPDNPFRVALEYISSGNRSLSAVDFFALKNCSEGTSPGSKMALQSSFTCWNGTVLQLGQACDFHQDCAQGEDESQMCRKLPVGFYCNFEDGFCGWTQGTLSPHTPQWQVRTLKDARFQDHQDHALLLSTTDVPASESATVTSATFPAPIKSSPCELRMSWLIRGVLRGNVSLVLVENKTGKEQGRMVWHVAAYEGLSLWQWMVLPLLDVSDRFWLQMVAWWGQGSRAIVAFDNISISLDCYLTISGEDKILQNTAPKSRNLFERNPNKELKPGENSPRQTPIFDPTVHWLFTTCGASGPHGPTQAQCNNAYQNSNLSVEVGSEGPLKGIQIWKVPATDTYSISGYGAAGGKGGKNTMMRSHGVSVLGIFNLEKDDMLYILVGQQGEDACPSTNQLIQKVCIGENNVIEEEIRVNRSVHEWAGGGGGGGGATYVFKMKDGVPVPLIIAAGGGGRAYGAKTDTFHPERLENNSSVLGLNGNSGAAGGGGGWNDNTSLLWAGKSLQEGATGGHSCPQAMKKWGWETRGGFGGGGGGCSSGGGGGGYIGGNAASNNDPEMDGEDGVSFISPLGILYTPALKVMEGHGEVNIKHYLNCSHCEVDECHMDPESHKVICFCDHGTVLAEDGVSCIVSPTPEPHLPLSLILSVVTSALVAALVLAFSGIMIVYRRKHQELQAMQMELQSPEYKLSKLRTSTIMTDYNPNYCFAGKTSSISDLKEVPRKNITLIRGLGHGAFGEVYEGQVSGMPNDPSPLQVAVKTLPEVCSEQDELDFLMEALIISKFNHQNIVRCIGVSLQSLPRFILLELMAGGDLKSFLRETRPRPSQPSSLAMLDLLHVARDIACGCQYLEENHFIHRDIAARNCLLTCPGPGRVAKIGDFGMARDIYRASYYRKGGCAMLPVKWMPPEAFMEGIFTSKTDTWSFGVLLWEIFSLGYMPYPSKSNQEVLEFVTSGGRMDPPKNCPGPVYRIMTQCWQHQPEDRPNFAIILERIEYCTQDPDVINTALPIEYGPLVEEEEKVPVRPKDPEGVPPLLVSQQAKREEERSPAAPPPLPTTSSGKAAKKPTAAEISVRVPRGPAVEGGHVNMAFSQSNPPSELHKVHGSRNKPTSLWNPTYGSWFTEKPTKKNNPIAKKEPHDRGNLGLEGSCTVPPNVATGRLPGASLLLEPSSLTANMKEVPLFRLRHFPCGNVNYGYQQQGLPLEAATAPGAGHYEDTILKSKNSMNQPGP
UniProt P10398: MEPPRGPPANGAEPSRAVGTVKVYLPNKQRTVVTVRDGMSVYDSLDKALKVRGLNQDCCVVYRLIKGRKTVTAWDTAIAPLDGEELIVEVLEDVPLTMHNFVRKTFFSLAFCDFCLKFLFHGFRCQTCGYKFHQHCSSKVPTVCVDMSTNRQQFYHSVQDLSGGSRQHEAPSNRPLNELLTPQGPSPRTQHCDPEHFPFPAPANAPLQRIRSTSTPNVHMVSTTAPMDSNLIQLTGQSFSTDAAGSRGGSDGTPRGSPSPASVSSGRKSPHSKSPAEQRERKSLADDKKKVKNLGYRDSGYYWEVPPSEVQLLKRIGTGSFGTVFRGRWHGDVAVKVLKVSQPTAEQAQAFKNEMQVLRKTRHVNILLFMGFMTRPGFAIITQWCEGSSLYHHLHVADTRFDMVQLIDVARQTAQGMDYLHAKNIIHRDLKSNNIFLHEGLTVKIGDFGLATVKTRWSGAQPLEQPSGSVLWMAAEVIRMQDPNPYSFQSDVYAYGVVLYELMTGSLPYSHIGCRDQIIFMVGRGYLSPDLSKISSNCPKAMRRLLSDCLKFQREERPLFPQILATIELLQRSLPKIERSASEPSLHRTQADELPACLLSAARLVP
UniProt O14965: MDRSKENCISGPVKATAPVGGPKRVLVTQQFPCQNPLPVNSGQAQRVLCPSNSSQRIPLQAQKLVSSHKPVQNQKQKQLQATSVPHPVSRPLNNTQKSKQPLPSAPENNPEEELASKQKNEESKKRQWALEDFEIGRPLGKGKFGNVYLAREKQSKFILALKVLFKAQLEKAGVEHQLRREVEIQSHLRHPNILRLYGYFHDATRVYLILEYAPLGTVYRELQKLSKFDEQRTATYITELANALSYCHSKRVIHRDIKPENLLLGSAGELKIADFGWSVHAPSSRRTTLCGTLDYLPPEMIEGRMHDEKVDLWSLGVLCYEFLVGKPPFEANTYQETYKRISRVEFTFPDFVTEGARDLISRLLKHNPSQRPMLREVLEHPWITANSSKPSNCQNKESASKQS
UniProt Q96GD4, whole entry: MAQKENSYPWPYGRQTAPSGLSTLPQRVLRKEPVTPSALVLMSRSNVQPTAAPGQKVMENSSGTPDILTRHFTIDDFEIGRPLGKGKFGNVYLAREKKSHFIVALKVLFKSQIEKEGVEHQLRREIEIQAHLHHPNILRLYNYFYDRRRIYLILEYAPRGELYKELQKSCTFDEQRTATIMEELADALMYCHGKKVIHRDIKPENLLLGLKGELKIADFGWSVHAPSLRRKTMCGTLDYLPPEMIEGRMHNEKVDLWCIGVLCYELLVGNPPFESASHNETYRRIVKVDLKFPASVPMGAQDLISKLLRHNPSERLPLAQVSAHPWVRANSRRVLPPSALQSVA
UniProt Q9UQB9: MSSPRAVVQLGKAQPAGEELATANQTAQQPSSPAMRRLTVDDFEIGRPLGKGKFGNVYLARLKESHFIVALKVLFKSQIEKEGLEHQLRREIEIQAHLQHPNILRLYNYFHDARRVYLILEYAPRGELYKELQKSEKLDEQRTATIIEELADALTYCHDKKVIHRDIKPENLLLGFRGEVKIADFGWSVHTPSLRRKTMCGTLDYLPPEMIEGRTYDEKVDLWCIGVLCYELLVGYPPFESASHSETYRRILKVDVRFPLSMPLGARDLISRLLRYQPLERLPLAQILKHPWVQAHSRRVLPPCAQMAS
UniProt P51451: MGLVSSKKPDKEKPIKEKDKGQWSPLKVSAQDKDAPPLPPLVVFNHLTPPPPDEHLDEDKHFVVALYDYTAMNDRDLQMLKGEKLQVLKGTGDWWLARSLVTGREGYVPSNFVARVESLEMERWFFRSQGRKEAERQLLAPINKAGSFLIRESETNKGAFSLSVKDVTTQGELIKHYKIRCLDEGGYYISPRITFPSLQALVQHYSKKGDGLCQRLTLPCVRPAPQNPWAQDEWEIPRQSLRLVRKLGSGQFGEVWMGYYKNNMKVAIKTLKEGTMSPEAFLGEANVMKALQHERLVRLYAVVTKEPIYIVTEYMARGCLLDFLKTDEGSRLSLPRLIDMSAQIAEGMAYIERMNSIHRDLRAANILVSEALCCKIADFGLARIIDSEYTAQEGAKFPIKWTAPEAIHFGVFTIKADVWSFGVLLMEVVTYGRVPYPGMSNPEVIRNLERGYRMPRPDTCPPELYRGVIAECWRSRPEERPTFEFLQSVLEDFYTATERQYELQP
UniProt P51813: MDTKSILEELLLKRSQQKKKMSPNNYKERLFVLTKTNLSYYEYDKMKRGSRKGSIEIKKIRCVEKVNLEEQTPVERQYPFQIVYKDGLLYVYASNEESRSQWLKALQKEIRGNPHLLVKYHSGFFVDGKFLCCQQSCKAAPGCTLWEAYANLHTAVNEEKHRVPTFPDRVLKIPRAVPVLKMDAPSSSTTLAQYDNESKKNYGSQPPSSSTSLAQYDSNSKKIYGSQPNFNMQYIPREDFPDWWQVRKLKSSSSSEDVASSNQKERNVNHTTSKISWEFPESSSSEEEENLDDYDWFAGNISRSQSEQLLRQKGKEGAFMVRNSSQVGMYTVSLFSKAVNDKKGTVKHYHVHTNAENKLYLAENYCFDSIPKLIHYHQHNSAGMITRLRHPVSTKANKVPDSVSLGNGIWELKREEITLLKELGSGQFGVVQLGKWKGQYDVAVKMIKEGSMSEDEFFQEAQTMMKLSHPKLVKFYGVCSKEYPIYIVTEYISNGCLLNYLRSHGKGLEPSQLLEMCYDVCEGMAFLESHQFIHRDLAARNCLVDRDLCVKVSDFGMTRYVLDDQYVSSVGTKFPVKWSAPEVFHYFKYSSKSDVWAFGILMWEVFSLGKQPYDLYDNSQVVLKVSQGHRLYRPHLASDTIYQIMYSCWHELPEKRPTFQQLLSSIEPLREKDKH
UniProt P15056, whole entry, looked up: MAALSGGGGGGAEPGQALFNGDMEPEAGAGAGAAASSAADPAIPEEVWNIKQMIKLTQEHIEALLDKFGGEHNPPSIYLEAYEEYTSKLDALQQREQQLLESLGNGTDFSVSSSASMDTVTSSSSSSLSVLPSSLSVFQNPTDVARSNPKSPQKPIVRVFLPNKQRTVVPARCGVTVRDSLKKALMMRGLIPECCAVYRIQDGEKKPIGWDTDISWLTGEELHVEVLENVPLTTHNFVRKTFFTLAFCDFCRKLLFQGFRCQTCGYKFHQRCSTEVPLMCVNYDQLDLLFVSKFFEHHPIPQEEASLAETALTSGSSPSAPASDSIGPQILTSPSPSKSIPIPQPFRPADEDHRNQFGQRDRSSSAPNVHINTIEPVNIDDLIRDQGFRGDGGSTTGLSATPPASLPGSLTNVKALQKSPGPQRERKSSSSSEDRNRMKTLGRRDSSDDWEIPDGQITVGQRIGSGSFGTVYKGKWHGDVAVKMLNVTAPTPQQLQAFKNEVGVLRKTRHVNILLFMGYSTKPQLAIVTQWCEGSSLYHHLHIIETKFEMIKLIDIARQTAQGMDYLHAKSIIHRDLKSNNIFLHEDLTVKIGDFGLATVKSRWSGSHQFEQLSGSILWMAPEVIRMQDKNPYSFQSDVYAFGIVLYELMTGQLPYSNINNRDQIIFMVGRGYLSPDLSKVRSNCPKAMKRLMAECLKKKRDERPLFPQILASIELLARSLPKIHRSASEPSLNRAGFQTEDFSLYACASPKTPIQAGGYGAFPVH
UniProt Q06187: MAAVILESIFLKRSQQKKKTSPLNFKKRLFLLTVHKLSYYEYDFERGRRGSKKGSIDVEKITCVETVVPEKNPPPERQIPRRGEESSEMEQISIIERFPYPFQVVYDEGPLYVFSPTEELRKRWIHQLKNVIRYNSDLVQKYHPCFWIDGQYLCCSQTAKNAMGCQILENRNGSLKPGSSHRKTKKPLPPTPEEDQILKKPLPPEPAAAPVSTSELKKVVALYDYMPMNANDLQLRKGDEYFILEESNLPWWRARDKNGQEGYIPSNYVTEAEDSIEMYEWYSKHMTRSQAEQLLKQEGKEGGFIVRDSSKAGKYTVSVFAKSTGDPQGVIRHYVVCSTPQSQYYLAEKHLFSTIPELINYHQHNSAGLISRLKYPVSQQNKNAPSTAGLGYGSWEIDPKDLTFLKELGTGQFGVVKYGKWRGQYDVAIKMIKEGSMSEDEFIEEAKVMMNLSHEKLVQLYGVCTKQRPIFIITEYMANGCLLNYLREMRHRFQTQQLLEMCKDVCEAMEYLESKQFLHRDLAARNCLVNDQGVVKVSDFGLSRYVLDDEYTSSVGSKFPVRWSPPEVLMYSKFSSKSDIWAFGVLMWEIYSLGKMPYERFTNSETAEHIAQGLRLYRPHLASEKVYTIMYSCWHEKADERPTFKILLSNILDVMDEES

Key:
Experiment in all cases: number of time points (of 5) at which kinase-Nluc abundance scored as decreased, DMSO-normalised (count); higher = more persistent destabilization
Settings in all cases: K562; 2-18 h
ALK = ALK (UniProt Q9UM73)
ARAF = ARAF (UniProt P10398)
AURKA = AURKA (UniProt O14965)
AURKB = AURKB (UniProt Q96GD4)
AURKC = AURKC (UniProt Q9UQB9)
BLK = BLK (UniProt P51451)
BMX = BMX (UniProt P51813)
BRAF = BRAF (UniProt P15056)
BRAF_V600E = system: BRAF_V600E
BTK = BTK (UniProt Q06187)

| Structure (SMILES) | number of time points (ALK) | number of time points (ARAF) | number of time points (AURKA) | number of time points (AURKB) | number of time points (AURKC) | number of time points (BLK) | number of time points (BMX) | number of time points (BRAF) | number of time points (BRAF_V600E) | number of time points (BTK) |
| --- | --- | --- | --- | --- | --- | --- | --- | --- | --- | --- |
| CN(C)C(=O)c1ccc(Cn2c(C(=O)O)cc3c(Br)cc(Sc4ccc(Cl)c(Cl)c4)cc32)cc1 [Rheb inhibitor NR1] (10 µM) | 0 | 0 | 0 | 0 | 0 | 0 | 0 | 0 | 0 | 0 |
| C[C@H]1CC[C@]2(NC1)O[C@H]1C[C@H]3[C@@H]4CC[C@H]5C[C@@H](O[C@@H]6O[C@H](CO)[C@H](O[C@@H]7O[C@H](CO)[C@@H](O)[C@H](O[C@@H]8OC[C@@H](O)[C@H](O)[C@H]8O)[C@H]7O[C@@H]7O[C@H](CO)[C@@H](O)[C@H](O)[C@H]7O)[C@H](O)[C@H]6O)CC[C@]5(C)[C@H]4CC[C@]3(C)[C@H]1[C@@H]2C [Tomatine] (2.5 µM) | 5 | 0 | 4 | 5 | 0 | 4 | 0 | 0 | 0 | 0 |
| O=C(N[C@@H](COc1ccc2[nH]c(=O)[nH]c2c1)c1ccccc1)c1cccn(Cc2ccc(F)c(F)c2)c1=O (2.5 µM) | 0 | 0 | 0 | 0 | 0 | 0 | 0 | 0 | 0 | 0 |
| O=Cc1cn(Cc2ccc(Cl)cc2)c2ccccc12 [Oncrasin-1] (10 µM) | 0 | 0 | 0 | 0 | 0 | 0 | 0 | 0 | 0 | 0 |
| CCCCCCCCCCCCCCCCOC[C@H](COP(=O)([O-])OCC[N+](C)(C)C)OC(C)=O (10 µM) | 0 | 0 | 0 | 0 | 0 | 0 | 0 | 0 | 0 | 0 |
| O=c1cc(O)c2ccccc2o1 [4-Hydroxycoumarin] (10 µM) | 0 | 0 | 0 | 0 | 0 | 0 | 0 | 0 | 0 | 0 |
| CC1C(=O)OC2C(O)C34C5OC(=O)C3(OC3OC(=O)C(O)C34C(C(C)(C)C)C5O)C12O (stereo not given) [Ginkgolide C] (10 µM) | 0 | 0 | 0 | 0 | 0 | 0 | 0 | 0 | 0 | 0 |
| O=C1C=CC[C@@H]2[C@H]3CCCN4CCC[C@@H](CN12)[C@@H]34 [Sophocarpine (monohydrate)] (2.5 µM) | 0 | 0 | 0 | 0 | 0 | 0 | 0 | 0 | 0 | 0 |
| O=c1[nH]c2ccccc2n1C1CCN(CCCC(c2ccc(F)cc2)c2ccc(F)cc2)CC1 [Pimozide] (2.5 µM) | 0 | 0 | 0 | 0 | 0 | 0 | 0 | 0 | 0 | 0 |
| CC(C)=CC[C@@H](OC(=O)CC(C)(C)O)C1=CC(=O)c2c(O)ccc(O)c2C1=O [β-Hydroxyisovalerylshikonin] (2.5 µM) | 0 | 0 | 0 | 0 | 0 | 0 | 0 | 0 | 0 | 0 |
| Cc1ccccc1-n1c(Cn2cnc3c(N)ncnc32)nc2cccc(C)c2c1=O (10 µM) | 0 | 0 | 0 | 0 | 0 | 0 | 0 | 0 | 0 | 0 |
| COc1ccc(/C=C/c2cc(OC)c(OC)c(OC)c2)cc1 (2.5 µM) | 3 | 0 | 0 | 0 | 0 | 0 | 0 | 0 | 0 | 0 |
| Cc1ccccc1-n1c(Cn2ncc3c(N)ncnc32)nc2cccc(C)c2c1=O (10 µM) | 0 | 0 | 0 | 0 | 0 | 0 | 0 | 0 | 0 | 0 |
| C/C(O)=C(\C#N)C(=O)Nc1cc(Br)ccc1Br (10 µM) | 0 | 0 | 0 | 0 | 0 | 0 | 0 | 0 | 0 | 0 |
| C[C@H](Nc1ncnc2[nH]cnc12)c1nc2ccc(F)cc2c(=O)n1-c1ccccc1 [Acalisib] (10 µM) | 0 | 0 | 0 | 0 | 0 | 0 | 0 | 0 | 0 | 0 |
| CC(=O)O[C@H]1[C@H]2[C@@H](OC(=O)Cc3ccccc3)[C@@H](C)C[C@]2(OC(C)=O)C(=O)/C(C)=C/[C@@H]2[C@H](CC[C@@]13CO3)C2(C)C [Euphorbiasteroid] (10 µM) | 0 | 0 | 0 | 0 | 0 | 0 | 0 | 0 | 0 | 0 |
| O=C(/C=C/c1ccccc1)OC[C@H]1O[C@@H](O[C@@H]2OC=C[C@H]3[C@H](O)[C@@H]4O[C@]4(CO)[C@@H]23)[C@H](O)[C@@H](O)[C@@H]1O [Picroside I] (10 µM) | 0 | 0 | 0 | 0 | 0 | 0 | 0 | 0 | 0 | 0 |
| C[C@H]1CC[C@]2(NC1)O[C@H]1C[C@H]3[C@@H]4CC[C@H]5C[C@@H](O)CC[C@]5(C)[C@H]4CC[C@]3(C)[C@H]1[C@@H]2C [Tomatidine] (2 µM) | 0 | 0 | 0 | 0 | 0 | 0 | 0 | 0 | 0 | 0 |
| O=C1C=CC[C@@H]2[C@H]3CCCN4CCC[C@@H](CN12)[C@@H]34 [Sophocarpine] (10 µM) | 0 | 0 | 0 | 0 | 0 | 0 | 0 | 0 | 0 | 0 |
| Cc1[nH]ncc1-c1cc2nc([C@H]3CC4CCN3CC4)[nH]c(=O)c2s1 [(R)-Simurosertib] (10 µM) | 0 | 0 | 1 | 0 | 0 | 0 | 0 | 0 | 0 | 0 |
| N#CC(C#N)=Cc1ccc(O)c(O)c1 [Tyrphostin 23] (10 µM) | 0 | 0 | 0 | 0 | 0 | 0 | 0 | 0 | 0 | 0 |
| CC(C)(C)c1cc(C=C(C#N)C#N)cc(Br)c1O (2.5 µM) | 0 | 0 | 0 | 0 | 0 | 0 | 0 | 0 | 0 | 0 |
| N#CC(C#N)=Cc1ccc([N+](=O)[O-])c(O)c1 (10 µM) | 0 | 0 | 0 | 0 | 0 | 0 | 0 | 0 | 0 | 0 |
| O=C(O)c1nn(Cc2ccc(Cl)cc2Cl)c2ccccc12 [Lonidamine] (10 µM) | 0 | 0 | 0 | 0 | 0 | 0 | 0 | 0 | 0 | 0 |
| COc1ccc2c(c1)/C(=C/c1cnc[nH]1)C(=O)N2 (2.5 µM) | 0 | 0 | 0 | 0 | 0 | 0 | 0 | 0 | 0 | 0 |
| C=C[C@H]1CN2CC[C@]3(C(=O)Nc4ccccc43)[C@@H]2C[C@@H]1/C(=C\OC)C(=O)OC [Corynoxeine] (2 µM) | 0 | 0 | 0 | 0 | 0 | 0 | 0 | 0 | 0 | 0 |
| CC(=O)c1c(O)c(C)c(O)c(Cc2c(O)c3c(c(C(=O)/C=C/c4ccccc4)c2O)OC(C)(C)C=C3)c1O [Rottlerin] (2 µM) | 0 | 0 | 0 | 0 | 0 | 0 | 2 | 0 | 0 | 0 |
| C[C@H](CCC(=O)O)C[C@H](C)C[C@H](C)C(=O)/C=C(\O)[C@H](C)C[C@H](C)C/C=C/[C@@H](C)[C@@H](O)[C@@H](C)[C@@H](O)C[C@@H]1CC[C@@](C)([C@H]2CC[C@@](C)([C@@H](C)O)O2)O1 [Ionomycin (calcium)] (2.5 µM) | 0 | 0 | 5 | 0 | 0 | 0 | 0 | 0 | 0 | 0 |

Complete entries from above. Order of values: number of time points (ALK) | number of time points (ARAF) | number of time points (AURKA) | number of time points (AURKB) | number of time points (AURKC) | number of time points (BLK) | number of time points (BMX) | number of time points (BRAF) | number of time points (BRAF_V600E) | number of time points (BTK)
CC(=O)O[C@H]1[C@H]2[C@@H](OC(=O)Cc3ccccc3)[C@@H](C)C[C@]2(OC(C)=O)C(=O)/C(C)=C/[C@@H]2[C@H](CC[C@@]13CO3)C2(C)C [Euphorbiasteroid] (10 µM) reads 0 | 0 | 0 | 0 | 0 | 0 | 0 | 0 | 0 | 0
CC(C)(C)c1cc(C=C(C#N)C#N)cc(Br)c1O (2.5 µM) reads 0 | 0 | 0 | 0 | 0 | 0 | 0 | 0 | 0 | 0
